Reference: PubChem BioAssay AID434947 (Broad Institute, 2010)
The campaign covered roughly 2,200 compounds. About 15 (0.7%) were called active.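 Rule for the calls: active = fitted half-maximal concentration for loss of luminescence signal no more than a set limit of log units above the top tested concentration; inconclusive = flat fit with 30 to 70% signal loss, or invalid fit; inactive = half-maximal concentration above that set limit.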 The list shows a part of the results.

Assay: ADP-Glo luciferase signal interference – biochemical, luminescence, cell-free, homogeneous, artefact control for GSK3beta inhibitor project, dose response (AID 434947);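 note: kinase-free counter screen of ADP-Glo detection reagents for GSK3beta hits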
Conditions: Cell-free ADP-Glo reagents, 5 uM ADP

EC50, inactive:
O=C(NCC(c1cccs1)N1CCOCC1)c1ccccc1NS(=O)(=O)c1ccc(Cl)cc1 (stereo unspecified) > 30 µM
CSc1nc(NCCCO)c2c3c(sc2n1)CN(C)CC3 > 30 µM
O=C(CSc1nnc(-c2cccnc2)n1-c1ccccc1)Nc1ccc2c(c1)OCO2 > 30 µM
CCCCc1cc(=O)oc2cc(C)c(CN3CCCC3)c(O)c12 > 30 µM
COc1ccc(CN(CC(=O)NCc2ccc(F)cc2)C(=O)CCC(=O)Nc2ccccn2)cc1 > 30 µM
Nc1nc(NCCOCCO)nc(NCC2CCCO2)c1[N+](=O)[O-] (stereo unspecified) > 30 µM
COc1ccc(COC(=O)C2=C(C)NC(=O)NC2c2ccc(O)c(OC)c2)cc1 (stereo unspecified) > 30 µM
COc1ccc(C(=O)c2coc3ccc(O)c(CN4CCOCC4)c23)cc1 > 30 µM
O=C1Nc2cc(C(=O)N3CCC(N4CCCCC4)CC3)ccc2S/C1=C\c1ccccc1 > 30 µM
CCOC(=O)Cc1csc(NC(=O)CSc2nc(-c3ccccc3)c(C#N)c(=O)[nH]2)n1 > 30 µM
COc1cccc(CSc2nnc(-c3ccc(F)cc3)o2)c1 > 30 µM
O=C(Nc1ccccn1)Nc1ccccc1Cl > 30 µM
Cn1nc(C(F)(F)F)c2cc(NC(=O)OCc3ccc(C(C)(C)C)cc3)sc21 > 30 µM
CC(NCC1COc2ccccc2O1)C1COc2ccccc2O1 (stereo unspecified) > 30 µM
CCN(CC)Cc1c(C(=O)N/N=C/c2cccc3ccccc23)nnn1-c1nonc1N > 30 µM
Cc1ccc(S(=O)(=O)N2CN(Cc3ccco3)c3nc4ccccc4nc32)cc1 > 3.8 µM
O=[N+]([O-])c1cc(-c2nc(-c3ccncc3)no2)ccc1Cl > 30 µM
O=[N+]([O-])c1cc(/C=N/O)ccc1N1CCCC1 > 30 µM
COc1ccc(C(C)N2CC34C=CC(O3)C(C(=O)O)C4C2=O)cc1 (stereo unspecified) > 30 µM
CCOC(=O)CSc1ccc2nnc(-c3ccncc3)n2n1 > 30 µM
CN(C)Cc1c(C(=O)N/N=C/c2ccoc2)nnn1-c1nonc1N > 30 µM
Nc1nonc1-n1nnc(C(=O)N/N=C/c2ccc(Br)cc2)c1CN1CCOCC1 > 30 µM
Cc1ccc(CSc2ccc3nnc(-c4ccccn4)n3n2)cc1 > 30 µM
CCCNCC1COc2ccccc2O1 (stereo unspecified) > 11 µM
COc1cc(OC)c(OC)cc1CNCC1COc2ccccc2O1 (stereo unspecified) > 30 µM
CCCN1CCN(CCCNC(=O)Cn2nc(C)n3c(cc4cc(OC)ccc43)c2=O)CC1 > 30 µM
COc1ccc(OC)c(NCc2nnc(-c3ccccc3)o2)c1 > 30 µM
COc1cccc2c1cc1c(=O)n(CC(=O)NC3CCCCC3)nc(C)n12 > 30 µM
CCn1c(SCC(=O)Nc2cc(Cl)ccc2OC)nnc1C1CC1 > 30 µM
CCOC(=O)CSc1ccc2nnc(CCNS(=O)(=O)c3ccccc3)n2n1 > 30 µM
Cc1c(C(=O)O)cccc1-n1c(C)cc(/C=N/Nc2ccc([N+](=O)[O-])cn2)c1C > 30 µM
CCOC(=O)/C(C#N)=C/c1cn(CCC(=O)O)nc1-c1ccccc1 > 30 µM
COc1cc(OC)cc(C(=O)NCC2CCCN(C(=O)c3csc(C)n3)C2)c1 (stereo unspecified) > 30 µM
Cc1cccc(OCc2nnc(SCC(=O)Nc3sc(C)c(C)c3C#N)n2C)c1 > 30 µM
CCCCc1cc(=O)oc2c(CN(C)C)c(O)ccc12 > 30 µM
CN=C(NC#N)SCC(=O)c1ccc(Cl)cc1Cl > 30 µM
COc1ccc(S(=O)(=O)CC(=O)c2cc3cccc(C)c3oc2=O)cc1 > 30 µM
CN(C)S(=O)(=O)c1cc(NC(=O)COC(=O)Cc2ccc(Br)cc2)ccc1Cl > 30 µM
O=C(CSc1ccc(F)cc1)Nc1ccc(N2CCOCC2)cc1 > 30 µM
COC(=O)c1nnn(-c2nonc2N)c1CSc1nc2ccccc2o1 > 30 µM
CCOc1ccc2c(c1)-c1c(ssc1=S)C(C)(C)N2C > 30 µM
C=CCN(c1ccc(C(=O)Nc2ccc(C)c(C)c2)cc1)S(C)(=O)=O > 30 µM
COc1ccc(/C=C2\Sc3ccc(C(=O)NCCCN4CCCC4)cc3N(C)C2=O)cc1OC > 30 µM
Cc1ccc(/C=C2/Sc3ccc(C(=O)NCCN4CCOCC4)cc3NC2=O)cc1 > 30 µM
Cc1c([N+](=O)[O-])c2ccc(O)cc2n1-c1ccccc1 > 30 µM
CC(C)CNc1nc(N)c([N+](=O)[O-])c(NC2CCCCC2)n1 > 30 µM
O=Cc1cc(CCC(=O)O)ccc1O > 30 µM
O=C1/C(=C\c2ccc(O)cc2)SC(=S)N1Cc1ccccc1 > 30 µM
CCN1CCN(c2nc(N)c([N+](=O)[O-])c(Nc3cccc(C)c3)n2)CC1 > 30 µM
N#Cc1c2n(c3c(=O)[nH]cnc13)CCCC2 > 30 µM
O=C1NC(c2ccncc2)Nc2sc3c(c21)CCCC3 (stereo unspecified) > 30 µM
COc1ccc2nc(Cl)cc(Cl)c2c1 > 30 µM
O=[N+]([O-])c1cc(/C=N/O)ccc1Sc1ccccc1 > 30 µM
O=C(CN1CCN(Cc2ccccc2Cl)CC1)N/N=C/c1ccccn1 > 30 µM
O=C(O)C1C2C=CC(O2)C1C(=O)NCc1ccc(Cl)cc1 (stereo unspecified) > 30 µM
CC(=O)Nc1cccc2c1C(=O)NC2=O > 30 µM
Fc1ccccc1CNc1nc(-c2cccnc2)nc2ccccc12 > 30 µM
C(=N\Nc1ncnc2nc[nH]c12)/c1cccs1 > 30 µM
O=C(NCCCN1CCCC1=O)c1ccc2c(c1)NC(=O)c1ccccc1S2 > 30 µM
CN(CCO)c1cc(N2CCC3(CC2)OCCO3)c2nonc2c1[N+](=O)[O-] > 30 µM
CS(=O)(=O)Nc1cccc(-c2cn3c(n2)SCC3)c1 > 30 µM
COC(=O)c1nnn(-c2nonc2N)c1CN1CCCC1 > 30 µM
CCc1ccc(S(=O)(=O)Nc2ccc(O)c3c(=O)cc(-c4ccccc4Cl)oc23)cc1 > 30 µM
COc1cccc2cc(C(C)=O)c(=O)oc12 > 30 µM
COc1ccc(C2CC(=O)N3CN(c4ccc(C)c(Cl)c4)CSC3=C2C#N)cc1 (stereo unspecified) > 30 µM
COc1cc(SC)ccc1C(=O)OCC(=O)NCCNC(=O)COC(=O)c1ccc(SC)cc1OC > 30 µM
CCOC(=O)c1[nH]c(C)c(C(=O)NCc2ccc(OC)cc2)c1C > 30 µM
O=C(O)Cn1c(=O)c2c3c(sc2n(Cc2ccccc2F)c1=O)CCCC3 > 30 µM
CCOc1ccc(NC(=O)COC(=O)c2ccc3c(c2)C(=O)N(CCc2ccccc2)C3=O)cc1 > 30 µM
COc1cccc(C(=O)NNC(=O)c2ccccc2)c1 > 30 µM
COc1ccc(C2CC(=O)c3c(O)cc(O)cc3O2)c(CC=C(C)C)c1OC (stereo unspecified) > 30 µM
Nc1nc(Nc2ccccc2)nc(NCc2ccco2)c1[N+](=O)[O-] > 30 µM
COc1ccc(-c2nc(-c3ccccc3)[nH]c(=O)c2C#N)cc1 > 30 µM
Cc1nc(N2CCOCC2)nc(N2CCCCC2C)c1[N+](=O)[O-] (stereo unspecified) > 30 µM
COc1cc(/C=N\NC(=O)c2cccc(Cl)c2)ccc1Oc1ccc([N+](=O)[O-])cn1 > 30 µM
COc1ccc(CCNC(=O)C(C(=O)c2ccccc2)n2cc(Cl)ccc2=O)cc1OC (stereo unspecified) > 30 µM
CC1(C)CC(=O)C2=C(C1)Nc1ccccc1NC2c1ccc(F)cc1 (stereo unspecified) > 30 µM
CC(C)Sc1nc2c(c(=O)[nH]1)C(c1cccs1)C1=C(CC(C)(C)CC1=O)N2 (stereo unspecified) > 30 µM
N#Cc1c(N2CCCCC2)nc(N2CCCCC2)c2c1CCN(Cc1ccccc1)C2 > 30 µM
CC(C)CC(=O)Nc1ccccc1-c1nnn(CC(=O)N2CCc3ccccc3C2)n1 > 30 µM
COc1ccc(-c2nn(-c3ccccc3)cc2C(=O)O)cc1OC > 30 µM
O=C1Nc2cc(C(=O)NCCCN3CCOCC3)ccc2S/C1=C/c1cccc(Cl)c1 > 30 µM
COc1cc(C2C3=C(CC(C)(C)CC3=O)Nc3c2c(=O)[nH]c(=O)n3Cc2ccccc2)ccc1O (stereo unspecified) > 30 µM
Cc1ccc(SCC(=O)Nc2ccc3c(c2)C(=O)NC3=O)cc1 > 30 µM
CN(c1ccccc1C(=O)Nc1cccc(C(F)(F)F)c1)S(C)(=O)=O > 30 µM
CCOc1ccccc1/C=N/NC(=O)c1nnn(-c2nonc2N)c1CN1CCCCCC1 > 30 µM
CC(=O)Nc1ccc(S(=O)(=O)c2cc(O)ccc2O)cc1 > 30 µM
CCn1nc(NC(=O)CC(C)C)c2cc3cccc(C)c3nc21 > 30 µM
O=[N+]([O-])c1cc(/C=N/O)ccc1SCc1ccccc1Cl > 30 µM
O=C(CS(=O)(=O)c1ccccc1)Nc1ncc([N+](=O)[O-])s1 > 30 µM
CCN(CC)CCN1C(=O)C(=O)/C(=C(/O)c2ccc(S(=O)(=O)N3CCOCC3)cc2)C1c1ccccc1 (stereo unspecified) > 30 µM

6 compounds already listed, ordered by count of non-hydrogen atoms, falling:
EC50, inactive:
COc1ccc(/C=C2\Sc3ccc(C(=O)NCCCN4CCCC4)cc3N(C)C2=O)cc1OC > 30 µM
CCOc1ccccc1/C=N/NC(=O)c1nnn(-c2nonc2N)c1CN1CCCCCC1 > 30 µM
O=C(CSc1nnc(-c2cccnc2)n1-c1ccccc1)Nc1ccc2c(c1)OCO2 > 30 µM
COc1cc(OC)cc(C(=O)NCC2CCCN(C(=O)c3csc(C)n3)C2)c1 (stereo unspecified) > 30 µM
COc1cc(OC)c(OC)cc1CNCC1COc2ccccc2O1 (stereo unspecified) > 30 µM
Cc1ccc(CSc2ccc3nnc(-c4ccccn4)n3n2)cc1 > 30 µM
